In publication PMC5434536:
Results are given in words; binding and its absence hold for the method and conditions named. Binding seen in cells or lysates may run through a third protein. Some entries that bind do so weakly or less than the wild type.

The chains behind the UniProt entries cited, without tags or fusion partners.
UniProt Q9NXR8: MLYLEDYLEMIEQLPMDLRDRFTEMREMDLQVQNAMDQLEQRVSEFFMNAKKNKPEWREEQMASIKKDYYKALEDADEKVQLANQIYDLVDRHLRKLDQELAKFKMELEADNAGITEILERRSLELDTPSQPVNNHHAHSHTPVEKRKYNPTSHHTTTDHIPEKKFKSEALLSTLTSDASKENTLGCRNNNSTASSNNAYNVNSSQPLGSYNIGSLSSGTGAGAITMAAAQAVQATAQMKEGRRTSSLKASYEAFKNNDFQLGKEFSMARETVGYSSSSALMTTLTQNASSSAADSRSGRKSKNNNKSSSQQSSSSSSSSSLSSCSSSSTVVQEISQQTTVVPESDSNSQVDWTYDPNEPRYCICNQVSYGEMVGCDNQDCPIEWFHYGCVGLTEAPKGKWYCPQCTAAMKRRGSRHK
UniProt Q92993: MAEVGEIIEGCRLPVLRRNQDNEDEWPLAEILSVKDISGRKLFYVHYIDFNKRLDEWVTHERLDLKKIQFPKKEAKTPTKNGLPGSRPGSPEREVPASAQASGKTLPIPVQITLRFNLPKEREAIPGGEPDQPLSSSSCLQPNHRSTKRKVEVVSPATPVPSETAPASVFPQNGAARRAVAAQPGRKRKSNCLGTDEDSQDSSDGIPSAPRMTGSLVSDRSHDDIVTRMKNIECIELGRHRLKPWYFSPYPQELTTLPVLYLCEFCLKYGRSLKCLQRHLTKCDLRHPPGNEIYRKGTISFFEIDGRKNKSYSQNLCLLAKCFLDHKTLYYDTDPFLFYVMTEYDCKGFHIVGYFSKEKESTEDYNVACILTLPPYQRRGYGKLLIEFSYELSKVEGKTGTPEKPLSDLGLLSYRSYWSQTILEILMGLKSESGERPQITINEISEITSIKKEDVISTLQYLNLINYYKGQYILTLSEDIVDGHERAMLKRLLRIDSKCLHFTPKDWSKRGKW
UniProt P10275: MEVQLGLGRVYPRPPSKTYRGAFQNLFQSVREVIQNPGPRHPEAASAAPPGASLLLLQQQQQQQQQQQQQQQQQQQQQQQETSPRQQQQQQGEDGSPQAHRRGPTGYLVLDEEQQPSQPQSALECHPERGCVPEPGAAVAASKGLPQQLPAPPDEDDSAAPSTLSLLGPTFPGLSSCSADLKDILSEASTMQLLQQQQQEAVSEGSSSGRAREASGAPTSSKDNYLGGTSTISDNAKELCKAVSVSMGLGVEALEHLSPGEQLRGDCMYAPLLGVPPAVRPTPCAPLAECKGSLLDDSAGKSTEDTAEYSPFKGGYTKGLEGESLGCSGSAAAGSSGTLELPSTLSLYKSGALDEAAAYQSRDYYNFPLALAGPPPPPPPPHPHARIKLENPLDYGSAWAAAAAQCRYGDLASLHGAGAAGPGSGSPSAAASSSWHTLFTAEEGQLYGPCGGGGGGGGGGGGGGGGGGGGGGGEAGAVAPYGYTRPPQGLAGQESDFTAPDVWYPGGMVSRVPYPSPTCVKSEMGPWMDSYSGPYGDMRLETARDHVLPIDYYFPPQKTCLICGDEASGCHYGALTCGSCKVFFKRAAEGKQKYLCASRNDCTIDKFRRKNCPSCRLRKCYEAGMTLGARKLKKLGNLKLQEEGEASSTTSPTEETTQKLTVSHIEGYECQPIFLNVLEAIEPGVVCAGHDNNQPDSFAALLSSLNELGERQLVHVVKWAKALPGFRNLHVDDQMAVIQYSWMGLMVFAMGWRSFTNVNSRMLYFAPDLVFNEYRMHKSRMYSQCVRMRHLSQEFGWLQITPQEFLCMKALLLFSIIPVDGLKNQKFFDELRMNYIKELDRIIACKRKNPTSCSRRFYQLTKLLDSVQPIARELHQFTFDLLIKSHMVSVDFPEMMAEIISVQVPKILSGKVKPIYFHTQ

What was measured:
[1] = biological target: HA-tagged ING3 (full-length ING3 expression plasmid) (human) (UniProt Q9NXR8); test: co-IP; HEK293T co-transfected with AR and HA-tagged ING3 constructs, whole lysate; ING3 constructs precipitated with HA-affinity beads; +/- 10 nM MB; also with ethidium bromide in the IP buffer; blots for AR and endogenous TIP60
[2] = biological target: HA-tagged ING3 (full-length ING3 expression plasmid) (human) (UniProt Q9NXR8); test: co-IP; nuclear fraction (REAP protocol) of HEK293T transfected with ING3-HA and AR, no MB; HA-bound beads pull down ING3
[3] = biological target: HA-tagged TIP60 (pCIN4-FLAG-HA-TIP60) (UniProt Q92993); test: co-IP; cells co-transfected with AR, TIP60 and increasing amounts of ING3 plasmid + 10 nM MB for 24 h; AR or TIP60 immunoprecipitated with anti-AR or HA-affinity beads
[4] = biological target: HA-tagged ING3 (full-length ING3 expression plasmid) (human) (UniProt Q9NXR8); test: co-IP; cytosolic fraction (REAP protocol) of HEK293T transfected with ING3-HA and AR, no MB; HA-bound beads pull down ING3
[5] = biological target: Myc-tagged androgen receptor (pCMV-3myc-AR) (UniProt P10275); test: co-IP; cells co-transfected with AR, TIP60 and increasing amounts of ING3 plasmid + 10 nM MB for 24 h; AR or TIP60 immunoprecipitated with anti-AR or HA-affinity beads

binding [1]	binding [3]	binding [4]	binding [5]	Substance	binding [2]
binds	binds	binds	–	Myc-tagged androgen receptor (pCMV-3myc-AR) (from UniProt P10275 1-920)	no binding (condition: in the nuclear fraction (no MB))
–	–	–	binds	HA-tagged TIP60 (pCIN4-FLAG-HA-TIP60) (from UniProt Q92993 1-513) (enzyme)	–
binds	–	–	–	TIP60, endogenous in HEK293T cells (from UniProt Q92993 1-513) (enzyme)	–
